# ± gives the standard deviation of the averaged measurements. Only a part is listed here, and it is no random draw.
# Sequences of proteins named here, by UniProt entry; tags and fusion partners are left off. A change or cut given only in a name is not applied to a line headed by its entry.
# UniProt Q9Y3B4: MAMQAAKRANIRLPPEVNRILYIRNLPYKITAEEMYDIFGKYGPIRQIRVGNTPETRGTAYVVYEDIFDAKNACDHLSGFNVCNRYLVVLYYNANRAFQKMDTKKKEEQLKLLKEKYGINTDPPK
# UniProt Q9Y2Q0: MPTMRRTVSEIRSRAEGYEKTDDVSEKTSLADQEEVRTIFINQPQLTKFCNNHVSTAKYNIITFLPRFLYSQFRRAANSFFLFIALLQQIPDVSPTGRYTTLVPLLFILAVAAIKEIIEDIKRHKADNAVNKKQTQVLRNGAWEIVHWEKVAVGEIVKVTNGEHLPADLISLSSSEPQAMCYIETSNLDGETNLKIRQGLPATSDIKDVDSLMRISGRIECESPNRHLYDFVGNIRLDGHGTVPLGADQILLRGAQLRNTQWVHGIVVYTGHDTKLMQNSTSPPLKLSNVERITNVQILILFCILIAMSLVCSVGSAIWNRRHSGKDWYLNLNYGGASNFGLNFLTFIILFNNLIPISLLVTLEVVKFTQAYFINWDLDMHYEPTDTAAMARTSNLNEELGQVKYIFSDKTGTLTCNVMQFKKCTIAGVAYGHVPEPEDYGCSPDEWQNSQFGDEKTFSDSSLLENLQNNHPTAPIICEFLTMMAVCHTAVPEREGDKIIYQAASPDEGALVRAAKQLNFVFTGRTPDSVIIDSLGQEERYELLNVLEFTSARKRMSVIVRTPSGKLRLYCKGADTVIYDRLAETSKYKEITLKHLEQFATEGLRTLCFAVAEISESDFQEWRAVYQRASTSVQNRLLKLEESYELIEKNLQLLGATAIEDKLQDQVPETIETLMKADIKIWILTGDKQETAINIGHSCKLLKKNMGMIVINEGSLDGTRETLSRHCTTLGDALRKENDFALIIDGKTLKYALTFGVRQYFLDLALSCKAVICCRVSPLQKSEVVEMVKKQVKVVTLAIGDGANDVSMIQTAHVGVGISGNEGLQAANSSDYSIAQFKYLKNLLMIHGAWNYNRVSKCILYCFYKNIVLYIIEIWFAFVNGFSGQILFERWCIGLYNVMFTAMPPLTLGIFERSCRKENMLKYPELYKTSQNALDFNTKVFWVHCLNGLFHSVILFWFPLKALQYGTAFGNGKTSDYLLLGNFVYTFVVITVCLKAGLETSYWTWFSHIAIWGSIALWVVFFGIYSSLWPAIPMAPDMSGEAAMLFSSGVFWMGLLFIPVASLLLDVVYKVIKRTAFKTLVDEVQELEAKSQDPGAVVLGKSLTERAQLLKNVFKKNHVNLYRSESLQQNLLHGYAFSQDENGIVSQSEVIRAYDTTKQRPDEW
# UniProt Q9Y2W2: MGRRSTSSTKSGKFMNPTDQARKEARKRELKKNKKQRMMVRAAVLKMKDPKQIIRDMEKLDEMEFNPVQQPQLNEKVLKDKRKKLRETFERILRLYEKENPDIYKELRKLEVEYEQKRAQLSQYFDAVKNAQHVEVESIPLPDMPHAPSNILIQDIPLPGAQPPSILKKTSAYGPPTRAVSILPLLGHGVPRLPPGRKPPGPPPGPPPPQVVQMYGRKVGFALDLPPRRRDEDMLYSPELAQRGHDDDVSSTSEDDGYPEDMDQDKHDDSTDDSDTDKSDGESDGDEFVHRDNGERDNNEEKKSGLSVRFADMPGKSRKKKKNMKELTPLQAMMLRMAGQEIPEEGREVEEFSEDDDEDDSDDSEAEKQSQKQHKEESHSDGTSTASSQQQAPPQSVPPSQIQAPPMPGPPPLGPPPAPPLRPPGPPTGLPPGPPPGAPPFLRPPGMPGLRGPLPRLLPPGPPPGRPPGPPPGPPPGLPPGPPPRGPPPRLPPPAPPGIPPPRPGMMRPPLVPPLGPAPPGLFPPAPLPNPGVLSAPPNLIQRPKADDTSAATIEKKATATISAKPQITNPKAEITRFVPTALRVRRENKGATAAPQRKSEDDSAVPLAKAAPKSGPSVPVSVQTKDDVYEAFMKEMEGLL
# UniProt Q9Y5K8, whole entry: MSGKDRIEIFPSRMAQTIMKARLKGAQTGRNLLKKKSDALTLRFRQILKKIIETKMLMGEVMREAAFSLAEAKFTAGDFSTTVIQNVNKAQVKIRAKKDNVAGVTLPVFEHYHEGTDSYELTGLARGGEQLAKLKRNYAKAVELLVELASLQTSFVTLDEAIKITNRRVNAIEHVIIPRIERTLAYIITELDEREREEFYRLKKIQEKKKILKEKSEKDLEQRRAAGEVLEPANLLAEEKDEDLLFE
# UniProt Q9Y3E0: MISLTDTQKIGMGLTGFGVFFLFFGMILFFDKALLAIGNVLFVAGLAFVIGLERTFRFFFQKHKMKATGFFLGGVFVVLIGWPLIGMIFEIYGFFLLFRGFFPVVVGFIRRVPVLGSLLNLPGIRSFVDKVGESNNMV
# UniProt Q9Y5L0: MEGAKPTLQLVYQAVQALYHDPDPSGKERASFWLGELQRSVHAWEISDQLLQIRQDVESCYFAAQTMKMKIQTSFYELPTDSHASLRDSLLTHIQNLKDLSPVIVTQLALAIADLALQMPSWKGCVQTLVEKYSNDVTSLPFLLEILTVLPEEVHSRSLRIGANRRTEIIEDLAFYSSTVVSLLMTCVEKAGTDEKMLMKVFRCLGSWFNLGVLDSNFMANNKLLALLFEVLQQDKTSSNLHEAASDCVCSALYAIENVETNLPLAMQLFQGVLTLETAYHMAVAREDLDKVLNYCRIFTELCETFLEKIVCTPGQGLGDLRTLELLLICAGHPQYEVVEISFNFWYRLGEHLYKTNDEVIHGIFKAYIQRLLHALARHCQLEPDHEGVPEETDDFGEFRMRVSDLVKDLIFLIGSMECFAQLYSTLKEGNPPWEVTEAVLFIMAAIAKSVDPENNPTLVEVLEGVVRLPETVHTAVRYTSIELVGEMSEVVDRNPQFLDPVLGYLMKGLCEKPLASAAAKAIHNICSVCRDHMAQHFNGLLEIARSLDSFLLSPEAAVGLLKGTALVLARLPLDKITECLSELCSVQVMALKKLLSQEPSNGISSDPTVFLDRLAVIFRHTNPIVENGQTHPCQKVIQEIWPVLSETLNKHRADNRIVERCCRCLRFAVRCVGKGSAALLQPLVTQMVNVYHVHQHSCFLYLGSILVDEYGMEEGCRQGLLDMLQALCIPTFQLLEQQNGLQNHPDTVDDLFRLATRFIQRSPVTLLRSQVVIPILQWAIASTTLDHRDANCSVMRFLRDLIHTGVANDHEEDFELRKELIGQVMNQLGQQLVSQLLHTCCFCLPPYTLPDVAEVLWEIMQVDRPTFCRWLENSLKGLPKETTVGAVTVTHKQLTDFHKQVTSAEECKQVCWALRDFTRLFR
# UniProt Q9Y680: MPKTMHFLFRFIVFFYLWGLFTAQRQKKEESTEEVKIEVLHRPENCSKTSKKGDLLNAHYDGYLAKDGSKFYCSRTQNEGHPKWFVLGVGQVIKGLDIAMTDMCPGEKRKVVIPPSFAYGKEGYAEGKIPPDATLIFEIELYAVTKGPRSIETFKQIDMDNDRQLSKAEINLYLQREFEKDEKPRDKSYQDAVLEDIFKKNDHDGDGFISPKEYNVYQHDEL
# UniProt Q9Y450, whole entry: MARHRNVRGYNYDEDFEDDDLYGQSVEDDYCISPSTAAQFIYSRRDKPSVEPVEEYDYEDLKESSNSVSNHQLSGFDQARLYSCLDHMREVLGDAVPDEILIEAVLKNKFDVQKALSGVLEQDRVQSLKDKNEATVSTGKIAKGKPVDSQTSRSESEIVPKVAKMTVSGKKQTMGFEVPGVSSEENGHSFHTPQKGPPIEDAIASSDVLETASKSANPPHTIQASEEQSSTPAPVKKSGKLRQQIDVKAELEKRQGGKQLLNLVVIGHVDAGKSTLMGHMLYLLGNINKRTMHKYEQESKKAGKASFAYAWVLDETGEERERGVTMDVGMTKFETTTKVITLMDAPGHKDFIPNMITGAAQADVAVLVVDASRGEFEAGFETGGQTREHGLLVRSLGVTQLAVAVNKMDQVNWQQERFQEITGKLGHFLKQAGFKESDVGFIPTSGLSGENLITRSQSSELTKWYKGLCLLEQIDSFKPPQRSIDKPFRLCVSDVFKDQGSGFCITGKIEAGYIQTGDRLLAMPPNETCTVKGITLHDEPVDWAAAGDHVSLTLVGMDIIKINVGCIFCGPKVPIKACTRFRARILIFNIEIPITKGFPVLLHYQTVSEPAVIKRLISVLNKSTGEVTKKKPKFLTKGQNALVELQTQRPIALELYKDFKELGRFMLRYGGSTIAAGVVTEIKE
# UniProt Q9Y5V0: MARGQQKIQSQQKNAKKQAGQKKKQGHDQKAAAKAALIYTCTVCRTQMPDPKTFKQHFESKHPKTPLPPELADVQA
# UniProt Q9Y5Z4: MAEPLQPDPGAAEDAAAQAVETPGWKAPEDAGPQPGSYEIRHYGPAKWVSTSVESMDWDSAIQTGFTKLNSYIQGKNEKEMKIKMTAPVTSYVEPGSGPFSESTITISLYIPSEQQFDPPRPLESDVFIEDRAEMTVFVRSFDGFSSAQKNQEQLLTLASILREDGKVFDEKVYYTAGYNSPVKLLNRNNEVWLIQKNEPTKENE
# UniProt Q9Y4C8: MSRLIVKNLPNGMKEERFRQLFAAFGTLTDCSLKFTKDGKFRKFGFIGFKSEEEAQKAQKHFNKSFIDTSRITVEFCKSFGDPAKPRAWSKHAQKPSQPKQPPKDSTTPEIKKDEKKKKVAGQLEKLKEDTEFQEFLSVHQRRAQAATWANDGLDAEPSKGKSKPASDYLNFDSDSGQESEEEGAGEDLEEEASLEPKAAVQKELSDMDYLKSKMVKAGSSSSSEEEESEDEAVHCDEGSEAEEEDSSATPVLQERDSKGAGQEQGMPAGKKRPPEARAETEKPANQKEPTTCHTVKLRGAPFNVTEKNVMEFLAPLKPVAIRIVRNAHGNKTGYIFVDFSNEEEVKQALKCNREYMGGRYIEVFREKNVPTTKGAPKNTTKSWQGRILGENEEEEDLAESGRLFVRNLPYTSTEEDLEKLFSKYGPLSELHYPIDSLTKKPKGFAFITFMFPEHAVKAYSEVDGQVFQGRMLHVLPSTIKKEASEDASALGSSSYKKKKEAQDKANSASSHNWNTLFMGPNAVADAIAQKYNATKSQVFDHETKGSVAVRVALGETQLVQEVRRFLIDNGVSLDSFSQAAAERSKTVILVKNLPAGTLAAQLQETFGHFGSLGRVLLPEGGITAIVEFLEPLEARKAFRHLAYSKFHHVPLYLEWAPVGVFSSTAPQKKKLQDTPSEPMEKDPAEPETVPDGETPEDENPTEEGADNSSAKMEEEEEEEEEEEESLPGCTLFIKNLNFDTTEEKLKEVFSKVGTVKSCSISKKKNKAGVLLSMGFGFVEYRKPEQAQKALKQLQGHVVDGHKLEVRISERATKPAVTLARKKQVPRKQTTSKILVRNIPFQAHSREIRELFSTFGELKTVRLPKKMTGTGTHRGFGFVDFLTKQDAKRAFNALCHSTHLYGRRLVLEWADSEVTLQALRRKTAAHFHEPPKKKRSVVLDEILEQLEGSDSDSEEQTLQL
# UniProt Q9Y2H6: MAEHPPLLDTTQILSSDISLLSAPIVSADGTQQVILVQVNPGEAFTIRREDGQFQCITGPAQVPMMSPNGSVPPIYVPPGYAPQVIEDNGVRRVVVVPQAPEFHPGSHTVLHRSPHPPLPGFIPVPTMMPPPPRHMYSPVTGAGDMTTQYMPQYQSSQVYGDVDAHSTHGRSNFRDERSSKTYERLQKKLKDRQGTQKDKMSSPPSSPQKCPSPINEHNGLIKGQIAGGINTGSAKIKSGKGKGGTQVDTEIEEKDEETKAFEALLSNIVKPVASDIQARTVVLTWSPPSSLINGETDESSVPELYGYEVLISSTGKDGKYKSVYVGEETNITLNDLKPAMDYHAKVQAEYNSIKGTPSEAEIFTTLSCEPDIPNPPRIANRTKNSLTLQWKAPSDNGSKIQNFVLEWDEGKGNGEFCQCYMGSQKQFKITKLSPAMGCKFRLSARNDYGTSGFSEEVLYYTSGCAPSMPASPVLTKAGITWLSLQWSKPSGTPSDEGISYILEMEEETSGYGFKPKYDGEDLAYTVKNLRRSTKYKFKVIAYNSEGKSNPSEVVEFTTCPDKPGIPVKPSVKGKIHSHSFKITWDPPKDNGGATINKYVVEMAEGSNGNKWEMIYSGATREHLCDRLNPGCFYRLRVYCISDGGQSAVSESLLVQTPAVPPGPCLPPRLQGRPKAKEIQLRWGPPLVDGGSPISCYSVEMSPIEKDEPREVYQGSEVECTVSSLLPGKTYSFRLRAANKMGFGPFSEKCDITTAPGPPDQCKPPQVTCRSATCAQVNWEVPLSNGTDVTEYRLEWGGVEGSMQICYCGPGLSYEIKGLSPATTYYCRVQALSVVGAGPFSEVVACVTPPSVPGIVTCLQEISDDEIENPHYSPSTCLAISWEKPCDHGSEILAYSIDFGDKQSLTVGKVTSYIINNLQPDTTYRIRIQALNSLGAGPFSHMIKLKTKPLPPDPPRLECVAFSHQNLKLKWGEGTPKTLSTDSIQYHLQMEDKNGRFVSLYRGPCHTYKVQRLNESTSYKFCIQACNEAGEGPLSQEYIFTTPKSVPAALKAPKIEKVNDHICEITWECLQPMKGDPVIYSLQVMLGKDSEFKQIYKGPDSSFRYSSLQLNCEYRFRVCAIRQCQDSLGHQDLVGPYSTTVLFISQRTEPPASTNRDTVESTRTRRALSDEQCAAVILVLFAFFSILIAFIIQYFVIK
# Compound: Nc1ncnc2c1ncn2[C@@H]1O[C@H](COP(=O)(O)OP(=O)(O)OP(=O)(O)O)[C@@H](O)[C@H]1O [adenosine triphosphate]
# Assay: NP40-soluble protein abundance relative to vehicle (solubility fold change) (ratio); higher = more soluble protein in presence of ATP
# Outline: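 Crude Jurkat lysate, prepared by Dounce homogenisation, was exposed to eight concentrations from 0.1 to 10 mM for 10 min at room temperature and then 3 min at 37 °C. Solubilisation used 0.8% NP40 with benzonase for 60 min at 4 °C, followed by ultracentrifugation and TMT labelling of the supernatant for LC-MS/MS. After vsn normalisation of intensities, each value is the fold change against the detergent-processed vehicle within each replicate, across three independent experiments.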
Target,NP40-soluble protein abundance (concentration: 1mM),NP40-soluble protein abundance (concentration: 2mM),NP40-soluble protein abundance (concentration: 4mM),NP40-soluble protein abundance (concentration: 6mM),NP40-soluble protein abundance (concentration: 8mM),NP40-soluble protein abundance (concentration: 10mM)
UniProt Q9Y3Q8 and related entries,0.982 ± 0.1,0.952 ± 0.05,0.954 ± 0.092,0.952 ± 0.11,0.919 ± 0.05,0.909 ± 0.019
YARS2 (UniProt Q9Y2Z4),1.03 ± 0.082,1 ± 0.082,1.01 ± 0.085,0.938 ± 0.13,1.02 ± 0.085,0.976 ± 0.071
RNF114 (UniProt Q9Y508),1.06 ± 0.043,0.998 ± 0.057,0.966 ± 0.046,0.998 ± 0.065,0.989 ± 0.054,0.95 ± 0.036
UniProt Q9Y3U8,1.03 ± 0.11,1.05 ± 0.081,1.08 ± 0.13,1.01 ± 0.11,0.77 ± 0.13,1.07 ± 0.08
UniProt Q9Y2Y0 and related entries,1.01 ± 0.056,1.03 ± 0.066,1.01 ± 0.073,0.981 ± 0.093,0.969 ± 0.056,0.974 ± 0.091
UniProt Q9Y3B4,1.12 ± 0.069,1.11 ± 0.059,1.2 ± 0.097,1.12 ± 0.054,1.23 ± 0.05,1.15 ± 0.1
UniProt Q9Y2Q0 and related entries,1.01 ± 0.045,0.995 ± 0.06,0.96 ± 0.09,0.995 ± 0.068,0.947 ± 0.062,0.999 ± 0.037
WBP11 (UniProt Q9Y2W2),1 ± 0.049,1.07 ± 0.026,1.07 ± 0.018,1.14 ± 0.016,1.12 ± 0.05,1.14 ± 0.027
CARHSP1 (UniProt Q9Y2V2),0.885 ± 0.051,0.893 ± 0.029,0.851 ± 0.038,0.864 ± 0.024,0.85 ± 0.047,0.813 ± 0.051
UniProt Q9Y2V7 and related entries,0.995 ± 0.036,0.99 ± 0.02,0.985 ± 0.022,0.943 ± 0.048,0.962 ± 0.015,0.966 ± 0.05
NOC2L (UniProt Q9Y3T9),1.04 ± 0.026,1.04 ± 0.015,1.08 ± 0.023,1.08 ± 0.027,1.148 ± 0.01,1.22 ± 0.044
UniProt Q9Y3R5 and related entries,1.02 ± 0.054,1.02 ± 0.057,1.02 ± 0.052,0.968 ± 0.062,1.04 ± 0.064,0.986 ± 0.046
UniProt Q9Y6J0 and related entries,1.04 ± 0.088,0.98 ± 0.052,1 ± 0.042,1.02 ± 0.12,0.992 ± 0.041,1.05 ± 0.036
ATP6V1D (UniProt Q9Y5K8),0.972 ± 0.055,0.967 ± 0.045,0.968 ± 0.037,0.918 ± 0.059,0.969 ± 0.047,0.949 ± 0.044
UniProt Q9Y608 and related entries,1.01 ± 0.044,1.02 ± 0.015,1 ± 0.013,1.05 ± 0.072,1.056 ± 0.0069,1.01 ± 0.069
TELO2 (UniProt Q9Y4R8),1.04 ± 0.12,1 ± 0.058,0.981 ± 0.029,0.933 ± 0.06,0.994 ± 0.048,0.991 ± 0.05
SEC23IP (UniProt Q9Y6Y8),0.9694 ± 0.0028,0.934 ± 0.034,0.928 ± 0.027,0.943 ± 0.02,0.927 ± 0.02,0.9191 ± 0.008

# Some of the entries so far, tab-delimited:
Target	NP40-soluble protein abundance (concentration: 1mM)	NP40-soluble protein abundance (concentration: 2mM)	NP40-soluble protein abundance (concentration: 4mM)	NP40-soluble protein abundance (concentration: 6mM)	NP40-soluble protein abundance (concentration: 8mM)	NP40-soluble protein abundance (concentration: 10mM)
UniProt Q9Y2Y0 and related entries	1.01 ± 0.056	1.03 ± 0.066	1.01 ± 0.073	0.981 ± 0.093	0.969 ± 0.056	0.974 ± 0.091
UniProt Q9Y3B4	1.12 ± 0.069	1.11 ± 0.059	1.2 ± 0.097	1.12 ± 0.054	1.23 ± 0.05	1.15 ± 0.1
UniProt Q9Y2Q0 and related entries	1.01 ± 0.045	0.995 ± 0.06	0.96 ± 0.09	0.995 ± 0.068	0.947 ± 0.062	0.999 ± 0.037
WBP11 (UniProt Q9Y2W2)	1 ± 0.049	1.07 ± 0.026	1.07 ± 0.018	1.14 ± 0.016	1.12 ± 0.05	1.14 ± 0.027
CARHSP1 (UniProt Q9Y2V2)	0.885 ± 0.051	0.893 ± 0.029	0.851 ± 0.038	0.864 ± 0.024	0.85 ± 0.047	0.813 ± 0.051
UniProt Q9Y2V7 and related entries	0.995 ± 0.036	0.99 ± 0.02	0.985 ± 0.022	0.943 ± 0.048	0.962 ± 0.015	0.966 ± 0.05
NOC2L (UniProt Q9Y3T9)	1.04 ± 0.026	1.04 ± 0.015	1.08 ± 0.023	1.08 ± 0.027	1.148 ± 0.01	1.22 ± 0.044

# Remaining list, next part:

Target,NP40-soluble protein abundance (concentration: 1mM),NP40-soluble protein abundance (concentration: 2mM),NP40-soluble protein abundance (concentration: 4mM),NP40-soluble protein abundance (concentration: 6mM),NP40-soluble protein abundance (concentration: 8mM),NP40-soluble protein abundance (concentration: 10mM)
GOLT1B (UniProt Q9Y3E0),0.997 ± 0.051,1.01 ± 0.15,1.07 ± 0.099,0.997 ± 0.1,0.987 ± 0.032,1.04 ± 0.042
UniProt Q9Y5L0 and related entries,0.955 ± 0.11,0.954 ± 0.082,0.922 ± 0.044,0.86 ± 0.12,0.926 ± 0.016,0.949 ± 0.059
RAD54L2 (UniProt Q9Y4B4),0.99 ± 0.038,1.01 ± 0.022,0.999 ± 0.033,1.02 ± 0.033,0.9896 ± 0.0094,1.01 ± 0.021
UniProt Q9Y4P8 and related entries,1.02 ± 0.11,1.07 ± 0.077,1.05 ± 0.12,0.949 ± 0.08,0.933 ± 0.077,1 ± 0.12
ASB1 (UniProt Q9Y576),0.952 ± 0.024,0.913 ± 0.14,1.06 ± 0.081,0.997 ± 0.091,0.924 ± 0.031,0.928 ± 0.013
PSAT1 (UniProt Q9Y617),0.931 ± 0.018,0.935 ± 0.024,0.892 ± 0.011,0.899 ± 0.071,0.896 ± 0.016,0.906 ± 0.024
UniProt Q9Y680 and related entries,1.03 ± 0.048,1.02 ± 0.014,0.991 ± 0.018,1.01 ± 0.019,0.976 ± 0.059,0.934 ± 0.045
UniProt Q9Y450 and related entries,0.995 ± 0.035,1.01 ± 0.054,1 ± 0.045,0.998 ± 0.053,1 ± 0.038,1.02 ± 0.038
YTHDF2 (UniProt Q9Y5A9),1.01 ± 0.029,0.98 ± 0.035,0.989 ± 0.052,1.02 ± 0.056,0.994 ± 0.031,1.03 ± 0.018
UniProt Q9Y5V0,0.924 ± 0.12,0.992 ± 0.099,0.963 ± 0.21,0.911 ± 0.088,0.802 ± 0.15,0.841 ± 0.2
UBE2J1 (UniProt Q9Y385),0.952 ± 0.03,0.944 ± 0.07,0.933 ± 0.063,0.962 ± 0.029,0.921 ± 0.063,0.928 ± 0.065
HEBP2 (UniProt Q9Y5Z4),0.941 ± 0.063,0.989 ± 0.019,0.937 ± 0.028,0.98 ± 0.038,0.921 ± 0.047,0.937 ± 0.038
RBM19 (UniProt Q9Y4C8),0.993 ± 0.057,1.02 ± 0.023,1.1 ± 0.038,1.18 ± 0.021,1.16 ± 0.045,1.25 ± 0.11
UniProt Q9Y5B6 and related entries,1.04 ± 0.058,1.095 ± 0.0086,1.2 ± 0.028,1.2 ± 0.025,1.16 ± 0.088,1.35 ± 0.039
UniProt Q9Y2H6 and related entries,1.03 ± 0.059,1.05 ± 0.041,1.04 ± 0.063,1.04 ± 0.037,1.02 ± 0.043,1.04 ± 0.054
CLIC4 (UniProt Q9Y696),0.988 ± 0.037,0.992 ± 0.036,0.972 ± 0.018,0.985 ± 0.04,0.956 ± 0.034,0.955 ± 0.044
UniProt Q9Y2G2-4|Q9Y2G2-5,0.902 ± 0.08,0.912 ± 0.033,0.937 ± 0.057,1 ± 0.031,0.944 ± 0.074,0.929 ± 0.093

# — the supplement of paper PMC6411743
